Reference: the supplement of paper PMC10331698
± gives the standard deviation of the averaged measurements. Most values lie at the level of the controls, where differences are scatter.

Assays:
Test in all cases: level (log10 ratio to DMSO vehicle control); higher = higher biomarker level / cell amount than vehicle control
[1] = compound: FC(F)(F)C(F)(F)C(F)(F)C(F)(F)C(F)(F)C(F)(F)C(F)(F)CCI [1-Iodo-1H,1H,2H,2H-perfluorononane]; conditions: in DMSO
Description: (§1)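 BioMAP Diversity Plus panel of 12 human primary cell co-culture systems (3C, 4H, LPS, SAg, BT, BF4T, BE3C, CASM3C, HDF3CGF, KF3CT, MyoF, Mphg). Compounds were added 1 h before stimulation and left for 24 h (MyoF 48 h; BT 72 h for soluble read-outs or 6 d for IgG). Biomarkers were read by ELISA, cytotoxicity by SRB, PBMC viability and proliferation by Alamar Blue. Each well value was divided by the mean of 8 DMSO control wells on the same plate and log10 transformed; duplicate blinded samples were tested at 4 concentrations.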

Perfluorooctanamide = compound: NC(=O)C(F)(F)C(F)(F)C(F)(F)C(F)(F)C(F)(F)C(F)(F)C(F)(F)F [Perfluorooctanamide]; conditions: 2200 nM; in DMSO
Description: as §1

[2] = compound: C=CC(=O)OCC(F)(F)C(F)(F)C(F)(F)C(F)(F)COC(=O)C=C [1H,1H,6H,6H-Perfluorohexane-1,6-diol diacrylate]; conditions: 2200 nM; in DMSO
Description: as §1

[3] = compound: FC(F)C(F)(F)COCC1CO1 [((2,2,3,3-Tetrafluoropropoxy)methyl)oxirane]; conditions: 2200 nM; in DMSO
Description: as §1

[4] = compound: O=C(O)C(F)(F)C(F)(F)C(F)(F)C(F)(F)C(F)(F)C(F)(F)C(F)(F)C(F)F [9-H-Perfluorononanoic acid]; conditions: 2200 nM; in DMSO
Description: as §1

[5] = compound: FC(F)(F)C(F)(F)C(F)(F)C(F)(F)C(F)(F)C(F)(F)C(F)(F)I [1-Iodopentadecafluoroheptane]; conditions: in DMSO
Description: as §1

[6] = compound: O=S(=O)(Cl)C(F)(F)C(F)(F)C(F)(F)C(F)(F)C(F)(F)C(F)(F)C(F)(F)C(F)(F)F [Perfluoro-1-octanesulfonyl chloride]; conditions: 2200 nM; in DMSO
Description: as §1

[7] = compound: OCCC(F)(F)C(F)(F)C(F)(F)C(F)(F)C(F)(F)C(F)(F)C(F)(F)C(F)(F)F [8:2 Fluorotelomer alcohol]; conditions: 2200 nM; in DMSO
Description: as §1

[8] = compound: O=P(O)(O)CCC(F)(F)C(F)(F)C(F)(F)C(F)(F)C(F)(F)C(F)(F)C(F)(F)C(F)(F)F [((Perfluorooctyl)ethyl)phosphonic acid]; conditions: 2200 nM; in DMSO
Description: as §1

Perfluoropropanoic acid = compound: O=C(O)C(F)(F)C(F)(F)F [Perfluoropropanoic acid]; conditions: 2200 nM; in DMSO
Description: as §1

[9] = compound: O=C(O)C=CC(F)(C(F)(F)F)C(F)(F)F [3-(Perfluoroisopropyl)-2-propenoic acid]; conditions: in DMSO
Description: as §1

[10] = compound: O=C(O)C(F)(F)C(F)(F)OC(F)(F)F [Perfluoro-3-methoxypropanoic acid]; conditions: 2200 nM; in DMSO
Description: as §1

[11] = compound: O=C(O)C(F)(F)OC(F)(F)C(F)(F)OC(F)(F)C(=O)O [Perfluoro-3,6-dioxaoctane-1,8-dioic acid]; conditions: 2200 nM; in DMSO
Description: as §1

[12] = compound: C=C(C)C(=O)OCC(F)(F)C(F)(F)C(F)(F)F [2,2,3,3,4,4,4-Heptafluorobutyl methacrylate]; conditions: 2200 nM; in DMSO
Description: as §1

Perfluoroundecanoic acid = compound: O=C(O)C(F)(F)C(F)(F)C(F)(F)C(F)(F)C(F)(F)C(F)(F)C(F)(F)C(F)(F)C(F)(F)C(F)(F)F [Perfluoroundecanoic acid]; conditions: in DMSO
Description: as §1

[13] = compound: O=C(O)C(F)(F)OC(F)(F)C(F)(F)OC(F)(F)C(F)(F)C(F)(F)C(F)(F)F [Perfluoro-3,6-dioxadecanoic acid]; conditions: 2200 nM; in DMSO
Description: as §1

Perfluorobutanoic acid = compound: O=C(O)C(F)(F)C(F)(F)C(F)(F)F [Perfluorobutanoic acid]; conditions: 2200 nM; in DMSO
Description: as §1

[14] = compound: OCC(F)(F)C(F)(F)C(F)(F)C(F)(F)C(F)(F)C(F)(F)C(F)(F)C(F)(F)C(F)(F)C(F)(F)C(F)(F)F [11:1 Fluorotelomer alcohol]; conditions: in DMSO
Description: as §1

| Test System | level (log10) ([1]; 740 nM) | level (log10) ([1]; 2200 nM) | level (log10) ([1]; 6700 nM) | level (log10) ([1]; 20000 nM) | level (log10) (Perfluorooctanamide) | level (log10) [2] | level (log10) [3] | level (log10) [4] | level (log10) ([5]; 740 nM) | level (log10) ([5]; 2200 nM) | level (log10) ([5]; 6700 nM) | level (log10) ([5]; 20000 nM) | level (log10) [6] | level (log10) [7] | level (log10) [8] | level (log10) (Perfluoropropanoic acid) | level (log10) ([9]; 2200 nM) | level (log10) ([9]; 6700 nM) | level (log10) ([9]; 20000 nM) | level (log10) ([9]; 60000 nM) | level (log10) [10] | level (log10) [11] | level (log10) [12] | level (log10) (Perfluoroundecanoic acid; 740 nM) | level (log10) (Perfluoroundecanoic acid; 2200 nM) | level (log10) [13] | level (log10) (Perfluorobutanoic acid) | level (log10) ([14]; 370 nM) | level (log10) ([14]; 1100 nM) | level (log10) ([14]; 3300 nM) | level (log10) ([14]; 10000 nM) |
| --- | --- | --- | --- | --- | --- | --- | --- | --- | --- | --- | --- | --- | --- | --- | --- | --- | --- | --- | --- | --- | --- | --- | --- | --- | --- | --- | --- | --- | --- | --- | --- |
| lMphg:IL-1alpha | 0.0075 ± 0.097 | -0.02 ± 0.04 | -0.012 ± 0.014 | 0.055 ± 0.045 | 0.0205 ± 0.032 | 0.022 ± 0.025 | -0.0075 ± 0.057 | 0.0275 ± 0.042 | 0.044 ± 0.021 | 0.0255 ± 0.012 | 0.03 ± 0.045 | 0.014 ± 0.0085 | 0.017 ± 0.037 | 0.009 ± 0.033 | -0.0155 ± 0.028 | -0.034 ± 0.037 | -0.0155 ± 0.054 | -0.0055 ± 0.037 | 0.0095 ± 0.016 | -0.0025 ± 0.012 | 0.0075 ± 0.043 | 0.02 ± 0.023 | 0.011 ± 0.023 | 0.028 ± 0.058 | 0.0105 ± 0.057 | -0.0185 ± 0.028 | 0.049 ± 0.033 | 0.049 ± 0.028 | 0.057 ± 0.025 | 0.039 ± 0.0085 | -0.12 ± 0.076 |
| SAg:CD69 | 0.0095 ± 0.005 | -0.012 ± 0.013 | -0.011 ± 0.017 | -0.0015 ± 0.018 | -0.012 ± 0.025 | -0.0035 ± 0.012 | -0.0015 ± 0.011 | 0.005 ± 0.018 | -0.017 ± 0.028 | -0.0245 ± 0.0078 | -0.028 ± 0.0071 | -0.039 ± 0.0014 | -0.0115 ± 0.0021 | -0.0145 ± 0.029 | -0.007 ± 0.0028 | -0.0285 ± 0.0021 | -0.005 ± 0.0028 | -0.0105 ± 0.0035 | 0.013 ± 0.0085 | 0.002 ± 0.0071 | 0.001 ± 0.028 | -0.003 ± 0.021 | 0.0115 ± 0.0092 | -0.0245 ± 0.0021 | -0.0255 ± 0.0078 | -0.003 ± 0.0028 | 0.006 ± 0.021 | -0.0225 ± 0.021 | -0.0355 ± 0.021 | -0.0425 ± 0.029 | -0.038 ± 0.023 |
| BF4T:MMP-1 | -0.0055 ± 0.05 | -0.013 ± 0.03 | 0.001 ± 0.035 | 0.016 ± 0.033 | 0.0005 ± 0.00071 | 0.0275 ± 0.049 | 0.014 ± 0.0099 | 0.0225 ± 0.049 | -0.014 ± 0.014 | -0.0245 ± 0.036 | -0.0055 ± 0.018 | 0.0005 ± 0.0035 | 0.0115 ± 0.023 | 0.0105 ± 0.022 | 0.0075 ± 0.019 | 0.008 ± 0.018 | 0.005 ± 0.014 | -0.0055 ± 0.012 | -0.0055 ± 0.0035 | 0.017 ± 0.03 | 0.0135 ± 0.026 | 0.009 ± 0.017 | -0.003 ± 0.02 | -0.0185 ± 0.011 | -0.0155 ± 0.042 | -0.019 ± 0.014 | -0.0035 ± 0.03 | -0.0055 ± 0.013 | -0.0095 ± 0.005 | -0.01 | -0.0015 ± 0.016 |
| LPS:SRB | 0.015 ± 0.0085 | 0.0075 ± 0.00071 | 0.0125 ± 0.0064 | 0.019 ± 0.017 | 0.0075 ± 0.016 | 0.002 ± 0.0014 | -0.001 ± 0.0099 | 0.0045 ± 0.0035 | 0.0095 ± 0.0092 | 0.003 ± 0.013 | 0.0035 ± 0.0064 | 0.003 ± 0.0042 | 0.0055 ± 0.0021 | -0.0075 ± 0.0035 | -0.006 ± 0.0071 | -0.0085 ± 0.011 | -0.0015 ± 0.0035 | -0.0015 ± 0.018 | -0.011 ± 0.016 | -0.0115 ± 0.028 | 0 ± 0.011 | -0.0085 ± 0.025 | 0 ± 0.0057 | 0.0135 ± 0.012 | 0.007 | -0.0075 ± 0.0021 | 0.0055 ± 0.018 | -0.0015 ± 0.012 | -0.029 ± 0.0099 | -0.0455 ± 0.0021 | -0.036 ± 0.0014 |
| BE3C:tPA | 0.008 ± 0.013 | 0.002 ± 0.018 | 0.004 ± 0.035 | 0.011 ± 0.035 | 0.018 ± 0.011 | -0.0125 ± 0.023 | 0.0085 ± 0.028 | 0.0405 ± 0.023 | -0.009 ± 0.013 | -0.0045 ± 0.0064 | -0.006 ± 0.0042 | 0.0075 ± 0.022 | 0.023 ± 0.011 | -0.014 ± 0.013 | 0.0975 ± 0.033 | 0.005 ± 0.02 | 0.0125 ± 0.073 | -0.004 ± 0.045 | -0.0215 ± 0.042 | 0.022 ± 0.0071 | 0.0065 ± 0.059 | -0.0165 ± 0.029 | -0.0225 ± 0.019 | 0.105 ± 0.025 | 0.136 ± 0.024 | -0.009 ± 0.045 | 0.013 ± 0.016 | -0.005 ± 0.0057 | -0.0125 ± 0.011 | -0.033 ± 0.011 | -0.008 ± 0.016 |
| MyoF:Collagen I | -0.0005 ± 0.029 | 0.002 ± 0.0099 | 0.007 ± 0.0042 | -0.015 ± 0.028 | 0.001 ± 0.013 | -0.005 ± 0.052 | 0.0055 ± 0.00071 | -0.007 ± 0.0028 | -0.013 ± 0.037 | -0.003 ± 0.0042 | -0.0495 ± 0.0021 | -0.339 ± 0.012 | -0.016 ± 0.017 | -0.01 ± 0.02 | 0.011 ± 0.0099 | 0.009 ± 0.0085 | 0.018 ± 0.045 | -0.0025 ± 0.012 | -0.002 ± 0.0042 | 0.002 ± 0.0085 | 0.0065 ± 0.037 | 0.0175 ± 0.043 | -0.008 ± 0.02 | -0.0135 ± 0.016 | 0 ± 0.013 | -0.002 ± 0.0085 | 0.003 ± 0.0042 | 0.0425 ± 0.032 | 0.051 ± 0.047 | 0.0475 ± 0.021 | 0.0435 ± 0.013 |
| BF4T:MMP-3 | 0 ± 0.0014 | 0.0045 ± 0.013 | 0.0185 ± 0.013 | 0.011 ± 0.0014 | 0.0115 ± 0.0092 | 0.0125 ± 0.042 | 0.0235 ± 0.026 | 0.0025 ± 0.021 | -0.007 ± 0.052 | -0.034 ± 0.028 | -0.0345 ± 0.039 | -0.0315 ± 0.016 | -0.0035 ± 0.018 | 0.0035 ± 0.029 | 0.0165 ± 0.0021 | 0.0045 ± 0.0035 | 0.026 ± 0.076 | -0.003 ± 0.014 | -0.0035 ± 0.015 | 0.0205 ± 0.033 | 0.0325 ± 0.043 | 0.01 ± 0.024 | -0.001 ± 0.038 | -0.0455 ± 0.0092 | -0.0335 ± 0.057 | 0.0195 ± 0.018 | 0.023 ± 0.03 | 0.003 ± 0.031 | 0.008 ± 0.0014 | 0.009 ± 0.0057 | 0.0435 ± 0.035 |
